Values from PubChem BioAssay AID1508597 (Cure First, 2020).
Assay: 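Knock-downs altering ovarian cancer cell survival with or without PARP inhibitor rucaparib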 (primary screen). Cell system: human ovarian carcinoma lines grown from tumours: OCI-P5x (papillary serous) and OCI-C5x (clear cell). Reagent: siRNA pool against human genes, 1.25 pmol siRNA per well. Time to read-out: 72 h or 96 h, depending on the cell culture. Challenge: rucaparib 20 µM (about IC30) or vehicle, present until read-out. Detection: 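Luminescent ATP-based viability assay read 72 or 96 h after transfection, depending on culture, given as normalised percent viability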. Scale: viability, normalised: higher = more viable cells remaining. Call rule: 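a well counts as a hit if its normalised viability is under 80 percent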. Meaning of the calls: active = viability under 80%; inactive = viability 80% or more.
In all, the deposit lists about 2,100 reagents; shown is a random part of them. 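Calls flag viability under 80% in either arm, not effects specific to rucaparib; the reference for percent is not stated.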 The record does not give: the 100% reference.

| target | rucaparib or vehicle | cell line | technical replicate | viability, normalised (%) | Call |
| --- | --- | --- | --- | --- | --- |
| PEA15 (proliferation and apoptosis adaptor protein 15) | Rucaparib | OCI-C5x (clear cell) | 1 | 46.7 | active |
| PEA15 (proliferation and apoptosis adaptor protein 15) | Rucaparib | OCI-C5x (clear cell) | 2 | 38.8 | active |
| PEA15 (proliferation and apoptosis adaptor protein 15) | Rucaparib | OCI-C5x (clear cell) | 3 | 39.8 | active |
| PEA15 (proliferation and apoptosis adaptor protein 15) | Rucaparib | OCI-P5x (serous) | 1 | 48.8 | active |
| PEA15 (proliferation and apoptosis adaptor protein 15) | Rucaparib | OCI-P5x (serous) | 2 | 53.7 | active |
| PEA15 (proliferation and apoptosis adaptor protein 15) | Rucaparib | OCI-P5x (serous) | 3 | 49.9 | active |
| PEA15 (proliferation and apoptosis adaptor protein 15) | Vehicle | OCI-C5x (clear cell) | 1 | 36.9 | active |
| PEA15 (proliferation and apoptosis adaptor protein 15) | Vehicle | OCI-C5x (clear cell) | 2 | 45.2 | active |
| PEA15 (proliferation and apoptosis adaptor protein 15) | Vehicle | OCI-C5x (clear cell) | 3 | 39.8 | active |
| PEA15 (proliferation and apoptosis adaptor protein 15) | Vehicle | OCI-P5x (serous) | 1 | 62.8 | active |
| PEA15 (proliferation and apoptosis adaptor protein 15) | Vehicle | OCI-P5x (serous) | 2 | 78 | active |
| PEA15 (proliferation and apoptosis adaptor protein 15) | Vehicle | OCI-P5x (serous) | 3 | 87.5 | inactive |

4 of these entries, set out differently:
{"target":"PEA15 (proliferation and apoptosis adaptor protein 15)","rucaparib or vehicle":"Rucaparib","cell line":"OCI-C5x (clear cell)","technical replicate":"2","viability, normalised (%)":38.8,"Call":"active"}
{"target":"PEA15 (proliferation and apoptosis adaptor protein 15)","rucaparib or vehicle":"Rucaparib","cell line":"OCI-C5x (clear cell)","technical replicate":"3","viability, normalised (%)":39.8,"Call":"active"}
{"target":"PEA15 (proliferation and apoptosis adaptor protein 15)","rucaparib or vehicle":"Rucaparib","cell line":"OCI-P5x (serous)","technical replicate":"1","viability, normalised (%)":48.8,"Call":"active"}
{"target":"PEA15 (proliferation and apoptosis adaptor protein 15)","rucaparib or vehicle":"Rucaparib","cell line":"OCI-P5x (serous)","technical replicate":"2","viability, normalised (%)":53.7,"Call":"active"}

The listing continues.
| target | rucaparib or vehicle | cell line | technical replicate | viability, normalised (%) | Call |
| --- | --- | --- | --- | --- | --- |
| SMC3 (structural maintenance of chromosomes 3) | Rucaparib | OCI-C5x (clear cell) | 1 | 53 | active |
| SMC3 (structural maintenance of chromosomes 3) | Rucaparib | OCI-C5x (clear cell) | 2 | 45.5 | active |
| SMC3 (structural maintenance of chromosomes 3) | Rucaparib | OCI-C5x (clear cell) | 3 | 35.9 | active |
| SMC3 (structural maintenance of chromosomes 3) | Rucaparib | OCI-P5x (serous) | 1 | 52.4 | active |
| SMC3 (structural maintenance of chromosomes 3) | Rucaparib | OCI-P5x (serous) | 2 | 60.3 | active |
| SMC3 (structural maintenance of chromosomes 3) | Rucaparib | OCI-P5x (serous) | 3 | 64.7 | active |
| SMC3 (structural maintenance of chromosomes 3) | Vehicle | OCI-C5x (clear cell) | 1 | 52.3 | active |
| SMC3 (structural maintenance of chromosomes 3) | Vehicle | OCI-C5x (clear cell) | 2 | 46.7 | active |
| SMC3 (structural maintenance of chromosomes 3) | Vehicle | OCI-C5x (clear cell) | 3 | 55.7 | active |
| SMC3 (structural maintenance of chromosomes 3) | Vehicle | OCI-P5x (serous) | 1 | 54.7 | active |
| SMC3 (structural maintenance of chromosomes 3) | Vehicle | OCI-P5x (serous) | 2 | 62.5 | active |
| SMC3 (structural maintenance of chromosomes 3) | Vehicle | OCI-P5x (serous) | 3 | 74.1 | active |
